Measured values reported in patent publication US20130131091A1, “HARMFUL ORGANISM CONTROL AGENT” (priority 2010, published 2013).
Some entries share one result that the patent states for a list of compounds.

Tests used:
Format in all cases: in vivo
[1] = tested on: Aphis gossypii; assay: Test Example 3: pesticidal effect against Aphis gossypii, cucumber leaf disk, 5 ppm; conditions: 5 ppm test solution on cucumber leaf disk, first instar larvae, three days after release, 25° C.
[2] = tested on: Myzus persicae; assay: Test Example 1: pesticidal effect against Myzus persicae, cabbage leaf disk, 20 ppm; conditions: 20 ppm test solution spread over cabbage leaf disk, first instar larvae, three days, 25° C.
[3] = tested on: Myzus persicae; assay: Test Example 2: pesticidal effect against Myzus persicae, cabbage leaf disk, 0.156 ppm; conditions: 0.156 ppm test solution spread over cabbage leaf disk, first instar larvae, three days, 25° C.

CC12Oc3cc(-c4cccnc4)oc(=O)c3C(O)C1C1(C)CCC(O)C(C)(CO)C1CC2=O (stereo not drawn) [Compound 1-3]
insecticidal activity (death rate of larvae) [1]: not less than 80%

CCC(=O)OCC1(C)C(OC(=O)CC)CCC2(C)C1CC(OC(=O)c1cc3ccccc3s1)C1(C)Oc3cc(-c4cccnc4)oc(=O)c3C(O)C21 (stereo not drawn) [Compound 1-145]
insecticidal activity (death rate of larvae) [2]: not less than 80%

CCC(=O)OCC1(C)C(OC(=O)CC)CCC2(C)C1CC(OC(=O)c1ccc3c(c1)OCO3)C1(C)Oc3cc(-c4cccnc4)oc(=O)c3C(O)C21 (stereo not drawn) [Compound 1-146]
insecticidal activity (death rate of larvae) [2]: not less than 80%

CC(=O)OC1CC2C(C)(COC(=O)C3CC3)C(OC(=O)C3CC3)CCC2(C)C2C(O)c3c(cc(-c4cccnc4)oc3=O)OC12C (stereo not drawn) [Compound 1-264]
insecticidal activity (death rate of larvae) [3]: not less than 80% | insecticidal activity (death rate of larvae) [2]: not less than 80%

CCC(=O)OC1CC2C(C)(COC(=O)C3CC3)C(OC(=O)C3CC3)CCC2(C)C2C(O)c3c(cc(-c4cccnc4)oc3=O)OC12C (stereo not drawn) [Compound 1-265]
insecticidal activity (death rate of larvae) [3]: not less than 80% | insecticidal activity (death rate of larvae) [2]: not less than 80%

CC1(COS(C)(=O)=O)C(OC(=O)C2CC2)CCC2(C)C1CC(OC(=O)C1CC1)C1(C)Oc3cc(-c4cccnc4)oc(=O)c3C(O)C21 (stereo not drawn) [Compound 1-329]
insecticidal activity (death rate of larvae) [2]: not less than 80%

CC1(COC(=O)c2ccccn2)C(OC(=O)C2CC2)CCC2(C)C1CC(OC(=O)C1CC1)C1(C)Oc3cc(-c4cccnc4)oc(=O)c3C(O)C21 (stereo not drawn) [Compound 1-333]
insecticidal activity (death rate of larvae) [2]: not less than 80%

CC1(COC(=O)c2ccccn2)C(OC(=O)C2CC2)CCC2(C)C1CC(OC(=O)c1ccccn1)C1(C)Oc3cc(-c4cccnc4)oc(=O)c3C(O)C21 (stereo not drawn) [Compound 1-355]
insecticidal activity (death rate of larvae) [2]: not less than 80%

CC1(COC(=O)C2CC2)C(OS(C)(=O)=O)CCC2(C)C1CC(OS(C)(=O)=O)C1(C)Oc3cc(-c4cccnc4)oc(=O)c3C(O)C21 (stereo not drawn) [Compound 1-361]
insecticidal activity (death rate of larvae) [1]: not less than 80% | insecticidal activity (death rate of larvae) [2]: not less than 80%

CC1(COC(=O)C2CC2)C(OC(=O)c2ccccc2)CCC2(C)C1CC(OC(=O)c1ccccc1)C1(C)Oc3cc(-c4cccnc4)oc(=O)c3C(O)C21 (stereo not drawn) [Compound 1-364]
insecticidal activity (death rate of larvae) [2]: not less than 80%

CC1(COC(=O)C2CC2)C(OC(=O)c2ccccn2)CCC2(C)C1CC(OC(=O)c1ccccn1)C1(C)Oc3cc(-c4cccnc4)oc(=O)c3C(O)C21 (stereo not drawn) [Compound 1-365]
insecticidal activity (death rate of larvae) [2]: not less than 80%

CC1(COC(=O)C2CC2)C(O)CCC2(C)C1CC(OC(=O)C1CC1)C1(C)Oc3cc(-c4cccnc4)oc(=O)c3C(O)C21 (stereo not drawn) [Compound 1-700]
insecticidal activity (death rate of larvae) [2]: not less than 80%

CC1(C)C(OC(=O)C2CC2)CCC2(C)C1CC(OC(=O)C1CC1)C1(C)Oc3cc(-c4cccnc4)oc(=O)c3C(O)C21 (stereo not drawn) [Compound 1-709]
insecticidal activity (death rate of larvae) [1]: not less than 80%

CC1(COC(=O)c2cccnc2)C(OC(=O)c2cccnc2)CCC2(C)C1CC(OC(=O)c1cccnc1)C1(C)Oc3cc(-c4cccnc4)oc(=O)c3C(O)C21 (stereo not drawn) [Compound 1-745]
insecticidal activity (death rate of larvae) [2]: not less than 80%

CC1(COC(=O)c2ccccn2)C(OC(=O)c2ccccn2)CCC2(C)C1CC(OC(=O)c1ccccn1)C1(C)Oc3cc(-c4cccnc4)oc(=O)c3C(O)C21 (stereo not drawn) [Compound 1-746]
insecticidal activity (death rate of larvae) [2]: not less than 80%

CC1(COC(=O)c2ccc(C(F)(F)F)nc2)C(OC(=O)c2ccc(C(F)(F)F)nc2)CCC2(C)C1CC(OC(=O)c1ccc(C(F)(F)F)nc1)C1(C)Oc3cc(-c4cccnc4)oc(=O)c3C(O)C21 (stereo not drawn) [Compound 1-748]
insecticidal activity (death rate of larvae) [2]: not less than 80%

CC1(COC(=O)C2CC2)C(OC(=O)C2CC2)CCC2(C)C1CC(O)C1(C)Oc3cc(-c4cccnc4)oc(=O)c3CC21 (stereo not drawn) [Compound 43-260]
insecticidal activity (death rate of larvae) [1]: not less than 80%

CC12CCC3C(C)(COC(=O)C4CC4)C(OC(=O)C4CC4)CCC3(C)C1Cc1c(cc(-c3cccnc3)oc1=O)O2 (stereo not drawn) [Compound 43-262, 1,11-di-O-cyclopropanecarbonyl 1.11-di-deacetyl pyripyropene O]
insecticidal activity (death rate of larvae) [1]: not less than 80%

CC12CCC3C(C)(C)C(OC(=O)C4CC4)CCC3(C)C1Cc1c(cc(-c3cccnc3)oc1=O)O2 (stereo not drawn) [Compound 43-713, 1-o-cyclopropanecarbonyl 1-deacetyl pyripyropene E]
insecticidal activity (death rate of larvae) [1]: not less than 80%

CC12CCC(OC(=O)C3CC3)C(C)(COC(=O)C3CC3)C1CC(O)C1(C)Oc3cc(-c4cccnc4)oc(=O)c3C=C21 (stereo not drawn) [Compound 72-260]
insecticidal activity (death rate of larvae) [1]: not less than 80% | insecticidal activity (death rate of larvae) [2]: not less than 80%

CCC(=O)OCC1(C)C(OC(=O)CC)CCC2(C)C3=Cc4c(cc(-c5cccnc5)oc4=O)OC3(C)C(OCSC)CC21 (stereo not drawn) [Compound 72-763]
insecticidal activity (death rate of larvae) [2]: not less than 80%

CC1(COC(=O)C2CC2)C(OC(=O)C2CC2)CCC2(C)C1CC(O)C1(C)Oc3cc(-c4cccnc4)oc(=O)c3C(=O)C21 (stereo not drawn) [Compound 89-260]
insecticidal activity (death rate of larvae) [2]: not less than 80%

COC1c2c(cc(-c3cccnc3)oc2=O)OC2(C)C(OC(=O)C3CC3)CC3C(C)(COC(=O)C4CC4)C(OC(=O)C4CC4)CCC3(C)C12 (stereo not drawn) [Compound 121-259]
insecticidal activity (death rate of larvae) [1]: not less than 80%

COC1c2c(cc(-c3cccnc3)oc2=O)OC2(C)C(O)CC3C(C)(COC(=O)C4CC4)C(OC(=O)C4CC4)CCC3(C)C12 (stereo not drawn) [Compound 121-260]
insecticidal activity (death rate of larvae) [1]: not less than 80%

COC1c2c(cc(-c3cccnc3)oc2=O)OC2(C)C(OC(C)=O)CC3C(C)(COC(=O)C4CC4)C(OC(=O)C4CC4)CCC3(C)C12 (stereo not drawn) [Compound 121-264]
insecticidal activity (death rate of larvae) [1]: not less than 80%

CCC(=O)OCC1(C)C(OC(=O)CC)CCC2(C)C1CC(OC1CCCCO1)C1(C)Oc3cc(-c4cccnc4)oc(=O)c3C(OC3CCCCO3)C21 (stereo not drawn) [Compound 135-751]
insecticidal activity (death rate of larvae) [2]: not less than 80%

CCCNC(=O)OC1c2c(cc(-c3cccnc3)oc2=O)OC2(C)C(OC(=O)NCCC)CC3C(C)(COC(=O)CC)C(OC(=O)CC)CCC3(C)C12 (stereo not drawn) [Compound 139-136]
insecticidal activity (death rate of larvae) [2]: not less than 80%

CC(=O)OC1c2c(cc(-c3cccnc3)oc2=O)OC2(C)C(OC(=O)C3CC3)CC3C(C)(COC(=O)C4CC4)C(OC(=O)C4CC4)CCC3(C)C12 (stereo not drawn) [Compound 226-259]
insecticidal activity (death rate of larvae) [1]: not less than 80%

CC(=O)OC1c2c(cc(-c3cccnc3)oc2=O)OC2(C)C(OC(C)=O)CC3C(C)(COC(=O)C4CC4)C(OC(=O)C4CC4)CCC3(C)C12 (stereo not drawn) [Compound 226-264]
insecticidal activity (death rate of larvae) [1]: not less than 80%

CC1(COC(=O)C2CC2)C(OC(=O)C2CC2)CCC2(C)C1CC(OC(=O)C1CC1)C1(C)Oc3cc(-c4cccnc4)oc(=O)c3C(OC(=O)C3CC3)C21 (stereo not drawn) [Compound 227-259]
insecticidal activity (death rate of larvae) [1]: not less than 80%

CC1(COC(=O)C2CC2)C(OC(=O)C2CC2)CCC2(C)C1CC(O)C1(C)Oc3cc(-c4cccnc4)oc(=O)c3C(OC(=O)C3CC3)C21 (stereo not drawn) [Compound 227-260]
insecticidal activity (death rate of larvae) [1]: not less than 80%

CC(=O)OC1CC2C(C)(COC(=O)C3CC3)C(OC(=O)C3CC3)CCC2(C)C2C(OC(=O)C3CC3)c3c(cc(-c4cccnc4)oc3=O)OC12C (stereo not drawn) [Compound 227-264]
insecticidal activity (death rate of larvae) [1]: not less than 80%
